Assay results reported in paper PMC10901353, “Identification of a potent and selective LAPTc inhibitor by RapidFire-Mass Spectrometry, with antichagasic activity” (PLOS Neglected Tropical Diseases, 2024).

Tests used:
[1] = tested on: Vero cells; test: Cytotoxicity against infected Vero host cells in T. cruzi intracellular assay; type: cell-based, African green monkey; settings: individual replicates
Method: Briefly, these cells were maintained at 37°C and 5% CO2 in MEM supplemented with 10% FCS, sub-culturing every 2–3 days at a ratio of 1:5 after 5 min treatment with Trypsin-EDTA (Gibco).
This assay was performed as described with the only modification that treatment was 96 h instead of 72 h. Briefly, Vero cells were infected overnight with tissue culture derived T. cruzi trypomastigotes in T225 tissue culture flasks (MOI 5). Any remaining free trypomastigotes were washed away with serum free MEM and the infected Vero cells were harvested by trypsinisation. Compounds (250 nL in DMSO) were dispensed using LabCyte ECHO (Beckman Coulter Life Sciences, USA) into each well of Corning black flat bottomed 384-well plates (Corning, USA). […] The infected Vero cells were then plated into the plates containing the compounds, at 4,000 cells per well in MEM media with 1% FCS. […] The plates were imaged on a Perkin Elmer Operetta high-content imaging system using a 20× objective. Images were analyzed using the Columbus system (Perkin Elmer). The algorithm first identified the Vero nuclei followed by demarcation of the cytoplasm and identification of intracellular amastigotes. This algorithm reported percent infected Vero cell and total number of Vero cells. All potency determinations were carried out in at least three independent replicates and are reported as pEC50 +/- standard deviation. pEC50 = -log(EC50[M]).

[2] = tested on: HepG2 cells; test: Cytotoxicity assay on human HepG2 cells (resazurin); type: cell-based; settings: individual replicates

Row | SMILES | Hill Slope (Vero) [1] | Hill (HepG2) [2]
1 | COc1ccc2oc(C(=O)Nc3nc(-c4ccccn4)cs3)c(C)c2c1 [Compound 4] | 0.7 and 1.3 and 0.6 and 0.9 | –
2 | Cc1ccc2nc(-c3ccc(NS(=O)(=O)c4cc(C(=O)O)c(Cl)cc4Cl)cc3)sc2c1 [Compound 5] | 4.2 and 2.3 and 3.9 and 2.9 | –
3 | Nc1[nH]cnc1-c1nc(-c2ccccc2)cs1 [Compound 7] | 0.8 and 0.738 and 0.6 and 0.9 | –
4 | COc1ccc(CC(=O)Nc2nc(-c3ccccn3)cs2)c(OC)c1 [Compound 12] | 1.2 | –
5 | c1ccc(Cc2ccc(OCCn3ccnc3)cc2)cc1 [Compound 13] | 0.951 and 0.639 and 0.761 and 0.8 | 1.9 and 2.0
6 | N#CC(=Cc1cn(Cc2ccc(C(=O)O)o2)c2ccccc12)c1nc2ccccc2[nH]1 [Compound 15] | 2.0 and 1.4 and 11.0 | –
7 | CCCS(=O)(=O)c1ccc(NS(=O)(=O)c2sc3ccc(Cl)cc3c2C)cc1 [Compound 24] | 1.3 and 0.8 and 1.0 and 1.2 | –

Values joined by “and” are separate entries in the source; they are usually repeats but may differ in a detail not shown here. Identical values can stand only once.
